Hit rate of the full screen: of about 360,000 compounds, about 7,500 (2.1%) were called active. The shares of active, inactive and inconclusive entries below differ from those in the screen. Calls follow the shape of the dose curve; as a rule, active = well fitted inhibition curve with a large enough effect; inconclusive = small, poorly fitted or top-dose-only effect, or effect the other way; inactive = flat fitted curve, though single readings scatter. Where the call is inconclusive, the potency comes from a doubtful curve fit.
experiment: Nrf2 qHTS screen for inhibitors; conditions: A549 ARE-Fluc reporter, luciferase luminescence, 18-24 h; series mostly up to 46 µM; also: nearly all actives have a fitted effect of over 60% in size
Outline: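 A549 ARE_Fluc cells, 5000/well, 5% FBS OPTI-MEM; compounds in dose-response, 18-24 h at 37 °C/5% CO2; CellTiter-Fluor viability read (Ex 405/Em 525), then BugLite luciferase luminescence = Nrf2 activity.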
Potency is read from the fitted curve at half-maximal effect.

| Compound | Potency |
| --- | --- |
| Cc1ccc(C(=O)OCC(=O)c2c[nH]c3ccccc23)cc1NC(=O)c1ccco1 | inconclusive: 29.1 µM [activator, single point] |
| C/C(=N/NC(=O)c1sc(NS(=O)(=O)c2ccccc2)nc1C)c1ccccc1 | inconclusive: 5.17 µM [falling, partial curve, poor fit] |
| COc1ccccc1OCc1ccc(C(=O)N2CCN3CCCC3C2)cc1 (configuration not stated) | inconclusive: 8.2 µM [activator, partial curve] |
| CN(C)c1nc(-c2ccccc2)ns1 | inconclusive: 14.6 µM [activator, partial curve, poor fit] |
| CCn1c(SCC(=O)N2c3ccccc3Sc3ccccc32)nnc1-c1ccco1 | active: 23.1 µM |
| Cc1cc(S(=O)(=O)N2CCc3ccccc3C2)ccc1F | inactive |
| COc1ccc(-n2nnc(-c3nsc(NC(=O)c4cccs4)n3)c2C)cc1OC | inconclusive: 6.51 µM [falling, single point] |
| Oc1ccc(/C=N/N2CCN(C3c4ccccc4-c4ccccc43)CC2)cc1O | inactive |
| CCn1cnc2cc(NCc3cccc(OC)c3O)ccc21 | inactive |
| O=C(CSc1ccccc1C(=O)N1CCN(c2ccc([N+](=O)[O-])cc2)CC1)N1CCCC1 | inconclusive: 29.1 µM [falling, single point] |
| Cc1c(Cl)cccc1NC(=O)C(CCS(C)(=O)=O)N1Cc2ccccc2C1=O (configuration not stated) | inconclusive: 18.4 µM [activator, partial curve] |
| CC(C(=O)N1c2ccccc2CC1C)N1CCN(S(=O)(=O)c2ccccc2F)CC1 (configuration not stated) | inconclusive: 7.31 µM [falling, partial curve, poor fit] |
| Cc1ccc(OCC(=O)NCCc2nc3ccccc3[nH]2)c(C)c1 | inconclusive: 32.6 µM [falling, single point] |
| Cc1cc2c(Nc3cccc(O)c3)ncnc2s1 | inactive |
| CS(=O)(=O)c1ccc(C2=C(c3ccccc3)C(=O)OC2)cc1 | inactive |
| Cc1csc(NC(=O)CSc2nc(C(C)C)nc3ccccc23)n1 | inconclusive: 20.6 µM [activator, partial curve] |
| COC(=O)c1c(NC(=O)c2ccccc2)sc2c1CC(C)(C)OC2 | inconclusive: 1.46 µM [activator, partial curve, poor fit] |
| CC(C)C(=O)Nc1ccc2oc(-c3cc(F)c(F)cc3Cl)nc2c1 | inconclusive: 0.164 µM [falling, full curve, poor fit] |
| Cc1ccccc1CC1(CO)CCCN(C(=O)CCCN2CCCCC2=O)C1 (configuration not stated) | inconclusive: 23.1 µM [activator, single point] |
| O=C(NC(=S)Nc1ccc2c(c1)OCCO2)c1cccc2ccccc12 | inconclusive: 32.6 µM [falling, single point] |
| Cc1ccnc(NC(=O)c2ccc(Cl)c(S(=O)(=O)N3CCCC3)c2)c1 | inconclusive: 16.4 µM [falling, single point] |
| COc1ccc(-c2noc(CCCC(=O)O)n2)cc1 | active: 1.84 µM |
| COc1ccc(CNc2ncnc3nc[nH]c23)cc1OC | inactive |

| Compound | Potency |
| --- | --- |
| O=C(CCNC(=O)c1ccc(Br)cc1)NCC1COc2ccccc2O1 (configuration not stated) | inconclusive: 5.8 µM [activator, full curve, poor fit] |
| COc1ccc2c(CNCc3ccccc3OC)c(C(=O)O)n(Cc3ccc(F)cc3Cl)c2c1 | inactive |
| CCSc1nc(-c2ccccc2)nc2c1CCCC2 | inconclusive: 3.26 µM [activator, single point] |
| Nc1cc(=O)nc(SCC(=O)Nc2ccc(F)cc2)n1-c1cccc(Cl)c1 | inconclusive: 7.31 µM [activator, partial curve] |
| Cc1cccc(N2CCN(C(=O)c3c(C)oc4ncnc(N5CCOCC5)c34)CC2)c1C | inconclusive: 29.1 µM [activator, single point] |
| Cn1nnnc1SCc1ccc(C(=O)Nc2ccc(Br)cc2)cc1 | inconclusive: 29.1 µM [falling, single point] |
| Fc1ccccc1Oc1nc(-c2ccncc2)nc2ccccc12 | inconclusive: 29.1 µM [falling, single point] |
| COc1ccc(CCN2C(=O)N(c3ccc(C)cc3)C(=O)C2CC(=O)Nc2ccc(F)cc2)cc1 (configuration not stated) | inconclusive: 23.1 µM [activator, single point] |
| CNC(=O)c1cc2c(s1)-c1ccccc1CC2 | inconclusive: 2.06 µM [activator, full curve, poor fit] |
| CCOC(=O)c1cccc(NC(=O)CSc2nnc(-c3ccoc3C)n2CC)c1 | inconclusive: 16.4 µM [falling, partial curve] |
| CCC(=O)Nc1nc(-c2ccccc2)ns1 | inconclusive: 0.164 µM [activator, full curve, poor fit] |
| O=C(Cc1ccc([N+](=O)[O-])cc1)Nc1cc(C(F)(F)F)cc(C(F)(F)F)c1 | inconclusive: 18.4 µM [falling, partial curve] |
| OCC[C@H]1C[C@H](O)[C@@H](O)[C@@]2(Cc3ccccc3CO2)O1 | inconclusive: 0.146 µM [falling, partial curve, poor fit] |
| O=C(c1ccc(-n2cnnn2)cc1)N1CCN(C(c2ccccc2)c2ccccc2)CC1 | inconclusive: 29.1 µM [falling, single point] |
| CCc1ccc(NC(=O)C(NS(=O)(=O)c2cccc3nsnc23)c2ccccc2)cc1 (configuration not stated) | inconclusive: 29.1 µM [falling, partial curve, poor fit] |
| CCOC(=O)c1c(NC(=O)C(Sc2ccccc2)c2ccccc2)sc(C(N)=O)c1C (configuration not stated) | inconclusive: 25.9 µM [falling, single point] |
| O=C1CN2CCC1C/C2=C\c1ccnc2c(Cl)cccc12 (configuration not stated) | inconclusive: 23.1 µM [falling, single point] |
| COc1ccc(C2CC(C(F)(F)F)n3nc(C(=O)NCc4cn(C)nc4C)c(Cl)c3N2)cc1 (configuration not stated) | inconclusive: 16.4 µM [falling, single point] |
| O=C(/C=C/c1cn(-c2ccccc2)nc1-c1cccnc1)c1ccco1 | inconclusive: 18.4 µM [falling, partial curve, poor fit] |
| Cc1ccc(S(=O)(=O)CC(CN2CCCCC2)N2CCCCC2)cc1 (configuration not stated) | inconclusive: 29.1 µM [activator, single point] |
| CCc1nc(N2CCN(C(C)=O)CC2)c2c3c(sc2n1)CC(C(C)(C)C)CC3 (configuration not stated) | active: 18.4 µM |
| COc1ccccc1CN1CC(C(=O)NCCc2ncccc2C)CCC1=O (configuration not stated) | inconclusive: 0.184 µM [falling, full curve, poor fit] |
| CNC(=S)NNC(=O)c1ccc(C(C)(C)C)cc1 | inconclusive: 6.51 µM [activator, partial curve, poor fit] |

Taken from above for reference:

| Compound | Potency |
| --- | --- |
| COc1ccc(C2CC(C(F)(F)F)n3nc(C(=O)NCc4cn(C)nc4C)c(Cl)c3N2)cc1 (configuration not stated) | inconclusive: 16.4 µM [falling, single point] |
| O=C(/C=C/c1cn(-c2ccccc2)nc1-c1cccnc1)c1ccco1 | inconclusive: 18.4 µM [falling, partial curve, poor fit] |
| Cc1ccc(S(=O)(=O)CC(CN2CCCCC2)N2CCCCC2)cc1 (configuration not stated) | inconclusive: 29.1 µM [activator, single point] |
| CCc1nc(N2CCN(C(C)=O)CC2)c2c3c(sc2n1)CC(C(C)(C)C)CC3 (configuration not stated) | active: 18.4 µM |

(list continues)

| Compound | Potency |
| --- | --- |
| Cc1ccc(NC(=O)c2cc3ccccc3oc2=O)cc1S(=O)(=O)N(C)C | inconclusive: 0.291 µM [activator, full curve, poor fit] |
| O=C(/C=C/c1ccc(N2CCC(c3ccccc3)=N2)cc1)c1ccccc1 | inconclusive: 4.11 µM [activator, partial curve] |
| Brc1ccc(C2=CC(c3cccs3)n3ncnc3N2)cc1 (configuration not stated) | inconclusive: 0.184 µM [activator, full curve, poor fit] |
| CCC(COC(=O)Nc1cccc(C)c1C)NC(=O)OCC(C)C (configuration not stated) | inconclusive: 16.4 µM [falling, partial curve, poor fit] |
| Cc1c(C(=O)N(C)C2CCCCC2)sc2ncnc(N3CCN(c4ccccc4)CC3)c12 | inconclusive: 29.1 µM [falling, single point] |
| NS(=O)(=O)c1ccc(CCNC(=O)CN2CCC(Cc3ccccc3)CC2)cc1 | active: 20.6 µM |
| COCCOC(=O)CSc1ncccc1-c1nc2cc(C)c(C)cc2[nH]1 | active: 14.6 µM |
| COCCOCCn1c(/C=C/c2ccccc2)nc2ccccc21 | inconclusive: 0.82 µM [activator, full curve] |
| Cc1cc(C)c2nc(NNC(=O)c3ccc(S(=O)(=O)N4CCCCC4)cc3)sc2c1 | inconclusive: 29.1 µM [falling, single point] |
| COc1ccc(CCNC(c2ccc(F)cc2)c2nnc(-c3ccccc3Cl)o2)cc1OC (configuration not stated) | inconclusive: 23.1 µM [falling, single point] |
| COc1ccc(OCc2cc(C(=O)N[C@H]3CCCCNC3=O)no2)c(Cl)c1 | inconclusive: 16.4 µM [activator, partial curve] |
| CC1=NN(c2nc3ccccc3[nH]2)C(=O)/C1=C/N(C)C | active: 18.4 µM |
| NNC(=S)NCCc1ccccc1 | inactive |
| Cc1cc(C)c(O)c(-c2cc(C(=O)Nc3ccc(S(=O)(=O)N4CCOCC4)cc3)[nH]n2)c1 | inconclusive: 25.9 µM [falling, single point] |
| Cc1cc(C)nc(/N=C2/NC(=O)CS2)n1 | inconclusive: 6.51 µM [activator, single point] |
| CCN1CCCC1CN(Cc1cc2ccc(C)cc2[nH]c1=O)C(=S)Nc1ccccc1C(=O)OC (configuration not stated) | inconclusive: 29.1 µM [activator, single point] |
| CCc1nc2ccccc2c(C(=O)Oc2cccc3cccnc23)c1C | inactive |
| CO/N=C/NC(=O)NOCc1ccc(Cl)cc1Cl | inactive |
| CCn1c(SCc2nc3scc(-c4ccccc4)c3c(=O)[nH]2)nnc1-c1cccs1 | inconclusive: 29.1 µM [falling, single point] |
| Cc1cc(N2CCOCC2)nc2ccc(NC(=O)CCC(=O)N3CCCCC3)cc12 | inactive |
| O=C(NCCc1nc(-c2ccc(F)cc2)no1)c1ccc(F)cc1 | inconclusive: 20.6 µM [falling, partial curve, poor fit] |

From PubChem BioAssay AID504444 (National Center for Advancing Translational Sciences (NCATS), 2011)
